Experimental data: PubChem BioAssay AID1159584 (Peter MacCallum Cancer Centre, 2016)
Shown is an unselected part of about 18,000 reagents. Not all columns of the deposit are shown. Reagent sequences are not shown. The record does not give: the amount of reagent, the time to read-out.

- Screen: 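Genes whose loss is lethal only together with E-cadherin loss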 (primary screen)
- Cells: human MCF10A breast epithelial cells, parental and CDH1-null
- Reagent: siRNA against human genes
- Measured: 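ATP luminescence (CellTiter-Glo) viability per line relative to mean mock wells over all plates, and the ratio of CDH1-null to parental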
- Reading the numbers: CDH1-null / parental viability ratio: higher = CDH1-null cells survive relatively better than parental; CDH1-null viability vs mock: higher = more viable CDH1-null cells
- Units: CDH1-null viability vs mock in fraction of mock

ACADL: CDH1-null / parental viability ratio = 0.64; CDH1-null viability vs mock = 0.62
PIM1: CDH1-null / parental viability ratio = 0.89; CDH1-null viability vs mock = 0.68
ARL9: CDH1-null / parental viability ratio = 1; CDH1-null viability vs mock = 0.78
WFDC12: CDH1-null / parental viability ratio = 1.26; CDH1-null viability vs mock = 0.88
POLR3C: CDH1-null / parental viability ratio = 1; CDH1-null viability vs mock = 0.72
LRRC27: CDH1-null / parental viability ratio = 1.16; CDH1-null viability vs mock = 1.03
LPAR5: CDH1-null / parental viability ratio = 0.81; CDH1-null viability vs mock = 0.52
RPL23AP82: CDH1-null / parental viability ratio = 1.33; CDH1-null viability vs mock = 0.89
CEACAM5: CDH1-null / parental viability ratio = 1.25; CDH1-null viability vs mock = 0.96
ZFYVE16: CDH1-null / parental viability ratio = 1.02; CDH1-null viability vs mock = 0.53
CRCT1: CDH1-null / parental viability ratio = 0.94; CDH1-null viability vs mock = 0.88
ELOVL5: CDH1-null / parental viability ratio = 1.02; CDH1-null viability vs mock = 0.82
FSIP1: CDH1-null / parental viability ratio = 1.03; CDH1-null viability vs mock = 0.93
BET1: CDH1-null / parental viability ratio = 1; CDH1-null viability vs mock = 0.72
PROKR2: CDH1-null / parental viability ratio = 0.84; CDH1-null viability vs mock = 0.84
GJA4: CDH1-null / parental viability ratio = 0.97; CDH1-null viability vs mock = 0.76
TFEC: CDH1-null / parental viability ratio = 0.92; CDH1-null viability vs mock = 0.92
DUT: CDH1-null / parental viability ratio = 1.03; CDH1-null viability vs mock = 0.91
ATP6V1G1: CDH1-null / parental viability ratio = 1.09; CDH1-null viability vs mock = 0.76
FYB1: CDH1-null / parental viability ratio = 1.16; CDH1-null viability vs mock = 0.86
OVGP1: CDH1-null / parental viability ratio = 1.92; CDH1-null viability vs mock = 1.23
CYRIB: CDH1-null / parental viability ratio = 0.79; CDH1-null viability vs mock = 0.62
ZNF321P: CDH1-null / parental viability ratio = 1.08; CDH1-null viability vs mock = 0.77
OR6V1: CDH1-null / parental viability ratio = 0.86; CDH1-null viability vs mock = 0.69

3 entries from above, showing only “CDH1-null viability vs mock”:
GJA4: 0.76
TFEC: 0.92
DUT: 0.91
